The values below come from patent publication US20120245121A1, “METHODS FOR IMPROVING BONE HEALTH IN INFANTS USING LONG CHAIN POLYUNSATURATED FATTY ACIDS” (ABBOTT LABORATORIES, priority 2011, published 2012).

The nature of this data set: Body weight of rat offspring after maternal diet supplementation. The data set is classed as in vivo, Sprague-Dawley rats. To be noted: mean±SEM.

Each structure is given as a SMILES string.

On to `O=C([O-])[O-].[Ca+2]` [Calcium, calcium carbonate], for which the “body weight of pups” value (at delivery, p<0.05 vs. Control group) turned out to be 8.24 ± 0.10 g and the “body weight of pups” value (at weaning (25-day-old), p<0.05 vs Control group) came out at 62.0 ± 0.9 g.
